The source of these data is paper PMC10817852, “Vascular injury activates the ELK1/SND1/SRF pathway to promote vascular smooth muscle cell proliferative phenotype and neointimal hyperplasia”.

Results are given in words; binding and its absence hold for the method and conditions named. In cells and extracts the contact can be indirect. Binding can be weak; no strength is given.

The target in the assay is GST-fusion protein containing the SN domain of SND1 (GST-SN). Kind of assay: pull-down; GST-fusion proteins of SND1 (full length, SN, TSN) with in vitro translated SRF; only the target purified.

B1: In vitro translated SRF (protein, UniProt Q9JM73 1-504)
chain: MLPSQAGAAAALGRGSALGGNLNRTPTGRPGGGGGTRGANGGRVPGNGAGLGQSRLEREAAAAAAPTAGALYSGSEGDSESGEEEELGAERRGLKRSLSEMELGVVVGGPEAAAAAAGGYGPVSGAVSGAKPGKKTRGRVKIKMEFIDNKLRRYTTFSKRKTGIMKKAYELSTLTGTQVLLLVASETGHVYTFATRKLQPMITSETGKALIQTCLNSPDSPPRSDPTTDQRMSATGFEEPDLTYQVSESDSSGETKDTLKPAFTVTNLPGTTSTIQTAPSTSTTMQVSSGPSFPITNYLAPVSASVSPSAVSSANGTVLKSTGSGPVSSGGLMQLPTSFTLMPGGAVAQQVPVQAIHVHQAPQQASPSRDSSTDLTQTSSSGTVTLPATIMTSSVPTTVGGHMMYPSPHAVMYAPTSGLADGSLTVLNAFSQAPSTMQVSHSQVQEPGGVPQVFLTAPSGTVQIPVSAVQLHQMAVIGQQAGSSSNLTELQVVNLDATHSTKSE
B1: the binding result is on record as “binds”.
